Results on one substance are retold here after patent US20100120092A1.

The chains behind the UniProt entries cited, without tags or fusion partners. Where a name states a change or a piece, a line headed by the entry shows the natural chain unless it says otherwise.
UniProt P27958: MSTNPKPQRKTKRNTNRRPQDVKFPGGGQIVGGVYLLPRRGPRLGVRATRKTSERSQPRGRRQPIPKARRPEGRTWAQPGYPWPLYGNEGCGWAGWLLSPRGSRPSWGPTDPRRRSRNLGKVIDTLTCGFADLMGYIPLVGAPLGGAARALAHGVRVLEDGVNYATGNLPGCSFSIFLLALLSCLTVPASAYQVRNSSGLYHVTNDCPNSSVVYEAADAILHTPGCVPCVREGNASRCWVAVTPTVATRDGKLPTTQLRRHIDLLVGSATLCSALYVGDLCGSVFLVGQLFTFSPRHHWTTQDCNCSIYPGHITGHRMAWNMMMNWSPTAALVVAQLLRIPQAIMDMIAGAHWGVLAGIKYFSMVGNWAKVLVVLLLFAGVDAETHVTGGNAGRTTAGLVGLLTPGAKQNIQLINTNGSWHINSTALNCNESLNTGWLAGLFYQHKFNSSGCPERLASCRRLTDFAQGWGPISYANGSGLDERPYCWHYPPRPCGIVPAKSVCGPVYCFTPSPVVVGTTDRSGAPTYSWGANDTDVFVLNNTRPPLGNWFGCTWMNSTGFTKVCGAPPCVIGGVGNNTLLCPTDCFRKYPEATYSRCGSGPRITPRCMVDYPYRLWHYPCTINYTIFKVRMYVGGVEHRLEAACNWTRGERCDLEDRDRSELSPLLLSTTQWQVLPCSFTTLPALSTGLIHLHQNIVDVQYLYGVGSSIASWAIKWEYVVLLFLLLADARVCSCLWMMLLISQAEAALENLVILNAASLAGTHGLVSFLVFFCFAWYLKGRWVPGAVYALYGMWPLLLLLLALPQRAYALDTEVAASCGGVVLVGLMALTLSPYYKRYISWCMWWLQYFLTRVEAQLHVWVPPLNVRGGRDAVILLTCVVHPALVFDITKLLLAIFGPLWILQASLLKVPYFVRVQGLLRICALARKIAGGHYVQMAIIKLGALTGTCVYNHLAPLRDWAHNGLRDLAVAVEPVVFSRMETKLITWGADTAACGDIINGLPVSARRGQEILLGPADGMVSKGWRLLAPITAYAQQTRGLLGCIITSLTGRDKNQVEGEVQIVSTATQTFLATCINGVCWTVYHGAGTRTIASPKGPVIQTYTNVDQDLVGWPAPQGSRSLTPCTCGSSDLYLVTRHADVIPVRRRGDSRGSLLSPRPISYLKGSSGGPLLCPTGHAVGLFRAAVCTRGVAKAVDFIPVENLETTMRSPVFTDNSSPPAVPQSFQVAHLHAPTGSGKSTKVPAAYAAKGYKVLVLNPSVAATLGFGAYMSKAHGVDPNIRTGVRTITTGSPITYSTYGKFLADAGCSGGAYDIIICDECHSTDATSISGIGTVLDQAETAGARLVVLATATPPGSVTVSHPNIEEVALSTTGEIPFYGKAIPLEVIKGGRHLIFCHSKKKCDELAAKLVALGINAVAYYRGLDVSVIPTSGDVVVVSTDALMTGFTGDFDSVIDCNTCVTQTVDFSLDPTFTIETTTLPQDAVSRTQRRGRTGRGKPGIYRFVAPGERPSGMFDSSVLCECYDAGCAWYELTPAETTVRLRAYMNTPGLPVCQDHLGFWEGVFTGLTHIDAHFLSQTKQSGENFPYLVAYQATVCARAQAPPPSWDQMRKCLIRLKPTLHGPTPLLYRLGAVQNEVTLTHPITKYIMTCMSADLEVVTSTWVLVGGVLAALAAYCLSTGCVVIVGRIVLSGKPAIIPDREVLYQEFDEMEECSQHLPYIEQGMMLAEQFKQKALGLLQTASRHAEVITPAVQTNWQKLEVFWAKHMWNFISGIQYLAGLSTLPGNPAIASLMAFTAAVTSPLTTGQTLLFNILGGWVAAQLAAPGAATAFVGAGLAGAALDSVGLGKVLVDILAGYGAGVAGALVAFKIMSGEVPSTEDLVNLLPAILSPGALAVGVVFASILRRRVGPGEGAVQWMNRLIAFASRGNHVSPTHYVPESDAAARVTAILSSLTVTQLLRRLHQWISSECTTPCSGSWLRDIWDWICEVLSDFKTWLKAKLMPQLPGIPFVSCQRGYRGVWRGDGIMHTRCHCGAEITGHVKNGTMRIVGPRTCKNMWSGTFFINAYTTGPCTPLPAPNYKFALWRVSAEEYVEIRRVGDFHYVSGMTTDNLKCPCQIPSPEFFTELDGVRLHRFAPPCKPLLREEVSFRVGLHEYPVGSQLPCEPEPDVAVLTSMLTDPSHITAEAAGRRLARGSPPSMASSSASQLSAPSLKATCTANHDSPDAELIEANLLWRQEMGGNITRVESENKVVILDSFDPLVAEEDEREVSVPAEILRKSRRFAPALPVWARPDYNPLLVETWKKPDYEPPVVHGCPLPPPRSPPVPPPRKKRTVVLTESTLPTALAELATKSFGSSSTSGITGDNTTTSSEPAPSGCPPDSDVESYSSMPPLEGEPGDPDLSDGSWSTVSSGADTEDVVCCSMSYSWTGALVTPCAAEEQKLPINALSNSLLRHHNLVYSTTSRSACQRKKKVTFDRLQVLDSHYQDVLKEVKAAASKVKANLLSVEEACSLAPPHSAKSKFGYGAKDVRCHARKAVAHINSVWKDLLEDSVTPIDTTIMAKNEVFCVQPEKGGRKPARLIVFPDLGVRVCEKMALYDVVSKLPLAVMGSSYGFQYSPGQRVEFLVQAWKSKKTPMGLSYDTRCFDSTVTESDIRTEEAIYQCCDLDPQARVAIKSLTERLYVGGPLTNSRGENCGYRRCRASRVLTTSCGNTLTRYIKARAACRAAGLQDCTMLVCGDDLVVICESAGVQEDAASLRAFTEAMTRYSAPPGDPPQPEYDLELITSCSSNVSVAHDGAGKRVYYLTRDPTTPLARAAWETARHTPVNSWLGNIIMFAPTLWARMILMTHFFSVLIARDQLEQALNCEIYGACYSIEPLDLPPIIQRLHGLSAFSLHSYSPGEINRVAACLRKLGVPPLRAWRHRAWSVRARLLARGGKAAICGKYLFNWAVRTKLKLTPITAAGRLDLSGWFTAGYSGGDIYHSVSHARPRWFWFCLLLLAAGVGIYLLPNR

Results are given in words; binding and its absence hold for the method and conditions named. Some results given as binding are weak or reduced against the parent protein; the word gives no strength.

The assay deals with HCV E2-DHBV S fusion protein (hepatitis C virus strain H77 (genotype 1a); duck hepatitis B virus (DHBV)). Put plainly: co-sedimentation in sucrose gradient, Western blot. On the technique in general: A western blot detects proteins with antibodies after separation by electrophoresis.

Regarding “HCV E1 protein cleaved from the E1E2-DS polyprotein (from UniProt P27958 193-383)”, the binding entry was “binds”.
